Measured values taken from the supplement of paper PMC10077471.
In all, about 1,900 compounds were measured (“excess over highest single agent (ExcessHSA) synergy score, 6x6 matrix”: median about -83, lowest 2% from about -370 on). The list shows a part of the results.

Tested on: NCI-H446
Assay: excess over highest single agent (ExcessHSA) synergy score, 6x6 matrix; higher = less synergy (more negative = stronger synergy)
Conditions: 72 h; CellTiter-Glo viability

Compound	excess over highest single agent
Cc1c(OCC(F)(F)F)ccnc1C[S+]([O-])c1nc2ccccc2[nH]1 (stereo not given) + Cc1sc2c(c1C)C(c1ccc(Cl)cc1)=N[C@@H](CC(=O)OC(C)(C)C)c1nnc(C)n1-2 [NCGC00250412-19]	-33.7
C/C=C(/C)C(=O)O[C@H]1C(C)=C2[C@H]([C@@H]1OC(=O)CCCCCCC)[C@@](C)(OC(C)=O)C[C@H](OC(=O)CCC)[C@@]1(O)[C@H]2OC(=O)[C@@]1(C)O + Cc1sc2c(c1C)C(c1ccc(Cl)cc1)=N[C@@H](CC(=O)OC(C)(C)C)c1nnc(C)n1-2 [NCGC00250412-19]	-67.2
Cn1c(=O)c2c(ncn2C)n(C)c1=O + Cc1sc2c(c1C)C(c1ccc(Cl)cc1)=N[C@@H](CC(=O)OC(C)(C)C)c1nnc(C)n1-2 [NCGC00250412-19]	-34.8
CC[C@@H]1C(=O)N(C)c2cnc(Nc3ccc(C(=O)NC4CCN(C)CC4)cc3OC)nc2N1C1CCCC1 + Cc1sc2c(c1C)C(c1ccc(Cl)cc1)=N[C@@H](CC(=O)OC(C)(C)C)c1nnc(C)n1-2 [NCGC00250412-19]	-91.1
COc1cc(OC)cc(-c2ccc3ncc4ccc(=O)n(-c5ccc(N6CCNCC6)c(C(F)(F)F)c5)c4c3c2)c1 + Cc1sc2c(c1C)C(c1ccc(Cl)cc1)=N[C@@H](CC(=O)OC(C)(C)C)c1nnc(C)n1-2 [NCGC00250412-19]	-287
Cc1ccc(-n2[nH]c(C)c(N=Nc3cccc(-c4cccc(C(=O)O)c4)c3O)c2=O)cc1C + Cc1sc2c(c1C)C(c1ccc(Cl)cc1)=N[C@@H](CC(=O)OC(C)(C)C)c1nnc(C)n1-2 [NCGC00250412-19]	23.8
COC(=O)Nc1nc2cc(C(=O)c3ccc(F)cc3)ccc2[nH]1 + Cc1sc2c(c1C)C(c1ccc(Cl)cc1)=N[C@@H](CC(=O)OC(C)(C)C)c1nnc(C)n1-2 [NCGC00250412-19]	-39
C[C@]12CC[C@H]3[C@@H](CCC4=CC(=O)CC[C@@]43C)[C@@H]1CC[C@@H]2OC(=O)CCC1CCCC1 + Cc1sc2c(c1C)C(c1ccc(Cl)cc1)=N[C@@H](CC(=O)OC(C)(C)C)c1nnc(C)n1-2 [NCGC00250412-19]	-227
COC1=C(OC)C(=O)C(C/C=C(\C)CC/C=C(\C)CC/C=C(\C)CC/C=C(\C)CC/C=C(\C)CC/C=C(\C)CC/C=C(\C)CC/C=C(\C)CC/C=C(\C)CCC=C(C)C)=C(C)C1=O + Cc1sc2c(c1C)C(c1ccc(Cl)cc1)=N[C@@H](CC(=O)OC(C)(C)C)c1nnc(C)n1-2 [NCGC00250412-19]	-97.2
COc1ccc(COc2cc3oc(=O)c4cc(C(C)O)ccc4c3cc2OC)cc1 (stereo not given) + Cc1sc2c(c1C)C(c1ccc(Cl)cc1)=N[C@@H](CC(=O)OC(C)(C)C)c1nnc(C)n1-2 [NCGC00250412-19]	-50.3

Random excerpt: 2 entries already listed
Compound	excess over highest single agent
Cc1c(OCC(F)(F)F)ccnc1C[S+]([O-])c1nc2ccccc2[nH]1 (stereo not given) + Cc1sc2c(c1C)C(c1ccc(Cl)cc1)=N[C@@H](CC(=O)OC(C)(C)C)c1nnc(C)n1-2 [NCGC00250412-19]	-33.7
COc1cc(OC)cc(-c2ccc3ncc4ccc(=O)n(-c5ccc(N6CCNCC6)c(C(F)(F)F)c5)c4c3c2)c1 + Cc1sc2c(c1C)C(c1ccc(Cl)cc1)=N[C@@H](CC(=O)OC(C)(C)C)c1nnc(C)n1-2 [NCGC00250412-19]	-287
